Laboratory results from patent US12697353B2, “Compositions comprising cinnamaldehyde and zinc and methods of using such compositions” (SOCIÉTÉ DES PRODUITS NESTLÉ S.A., priority 2015, dated 2026).

Assay: comparative taste testing in human subjects
Assay type: in vivo
Conditions: 4.8 ppm capsaicin or 350 ppm cinnamaldehyde, FIG. 9

| SMILES | participants who judged the taste intense to very intense [%] |
| --- | --- |
| COc1cc(CNC(=O)CCCC/C=C/C(C)C)ccc1O [capsaicin, reference compound] | 87.9 |
| O=CC=Cc1ccccc1 [cinnamaldehyde] | 20.5 |
